The values below are quoted from earlier work in US20060240095A1, “Pharmaceutical composition comprising a combination of metformin and a statin” (priority 2003, published 2006).

The conditions of this series: oral administration with food; cited from earlier work.

`CC(C)c1c(C(=O)Nc2ccccc2)c(-c2ccccc2)c(-c2ccc(F)cc2)n1CC[C@@H](O)C[C@@H](O)CC(=O)O` [Atorvastatin]: the “effect of food on absorption” value is “decreases the rate and extent of drug absorption”.
